Measured values taken from the supplement of paper PMC12823440, “Inhibitors supercharge kinase turnover through native proteolytic circuits” (Nature, 2025).
This is one part of the list. The calls rarely recur for the same compound in another form.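 Kinases were expressed as nanoluciferase fusions in K562 cells and luminescence was read every 4 h between 2 and 18 h as percent of control, DMSO set to 100% and a positive control to 0%. A time point counts as decreased when the signal drops significantly (2 sigma). The hit call is the authors' own, does not follow from the count of time points alone, and its rule is not shown.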

Sequences of proteins named here, by UniProt entry; tags and fusion partners are left off. A change or cut given only in a name is not applied to a line headed by its entry.
UniProt P42356, whole entry, looked up: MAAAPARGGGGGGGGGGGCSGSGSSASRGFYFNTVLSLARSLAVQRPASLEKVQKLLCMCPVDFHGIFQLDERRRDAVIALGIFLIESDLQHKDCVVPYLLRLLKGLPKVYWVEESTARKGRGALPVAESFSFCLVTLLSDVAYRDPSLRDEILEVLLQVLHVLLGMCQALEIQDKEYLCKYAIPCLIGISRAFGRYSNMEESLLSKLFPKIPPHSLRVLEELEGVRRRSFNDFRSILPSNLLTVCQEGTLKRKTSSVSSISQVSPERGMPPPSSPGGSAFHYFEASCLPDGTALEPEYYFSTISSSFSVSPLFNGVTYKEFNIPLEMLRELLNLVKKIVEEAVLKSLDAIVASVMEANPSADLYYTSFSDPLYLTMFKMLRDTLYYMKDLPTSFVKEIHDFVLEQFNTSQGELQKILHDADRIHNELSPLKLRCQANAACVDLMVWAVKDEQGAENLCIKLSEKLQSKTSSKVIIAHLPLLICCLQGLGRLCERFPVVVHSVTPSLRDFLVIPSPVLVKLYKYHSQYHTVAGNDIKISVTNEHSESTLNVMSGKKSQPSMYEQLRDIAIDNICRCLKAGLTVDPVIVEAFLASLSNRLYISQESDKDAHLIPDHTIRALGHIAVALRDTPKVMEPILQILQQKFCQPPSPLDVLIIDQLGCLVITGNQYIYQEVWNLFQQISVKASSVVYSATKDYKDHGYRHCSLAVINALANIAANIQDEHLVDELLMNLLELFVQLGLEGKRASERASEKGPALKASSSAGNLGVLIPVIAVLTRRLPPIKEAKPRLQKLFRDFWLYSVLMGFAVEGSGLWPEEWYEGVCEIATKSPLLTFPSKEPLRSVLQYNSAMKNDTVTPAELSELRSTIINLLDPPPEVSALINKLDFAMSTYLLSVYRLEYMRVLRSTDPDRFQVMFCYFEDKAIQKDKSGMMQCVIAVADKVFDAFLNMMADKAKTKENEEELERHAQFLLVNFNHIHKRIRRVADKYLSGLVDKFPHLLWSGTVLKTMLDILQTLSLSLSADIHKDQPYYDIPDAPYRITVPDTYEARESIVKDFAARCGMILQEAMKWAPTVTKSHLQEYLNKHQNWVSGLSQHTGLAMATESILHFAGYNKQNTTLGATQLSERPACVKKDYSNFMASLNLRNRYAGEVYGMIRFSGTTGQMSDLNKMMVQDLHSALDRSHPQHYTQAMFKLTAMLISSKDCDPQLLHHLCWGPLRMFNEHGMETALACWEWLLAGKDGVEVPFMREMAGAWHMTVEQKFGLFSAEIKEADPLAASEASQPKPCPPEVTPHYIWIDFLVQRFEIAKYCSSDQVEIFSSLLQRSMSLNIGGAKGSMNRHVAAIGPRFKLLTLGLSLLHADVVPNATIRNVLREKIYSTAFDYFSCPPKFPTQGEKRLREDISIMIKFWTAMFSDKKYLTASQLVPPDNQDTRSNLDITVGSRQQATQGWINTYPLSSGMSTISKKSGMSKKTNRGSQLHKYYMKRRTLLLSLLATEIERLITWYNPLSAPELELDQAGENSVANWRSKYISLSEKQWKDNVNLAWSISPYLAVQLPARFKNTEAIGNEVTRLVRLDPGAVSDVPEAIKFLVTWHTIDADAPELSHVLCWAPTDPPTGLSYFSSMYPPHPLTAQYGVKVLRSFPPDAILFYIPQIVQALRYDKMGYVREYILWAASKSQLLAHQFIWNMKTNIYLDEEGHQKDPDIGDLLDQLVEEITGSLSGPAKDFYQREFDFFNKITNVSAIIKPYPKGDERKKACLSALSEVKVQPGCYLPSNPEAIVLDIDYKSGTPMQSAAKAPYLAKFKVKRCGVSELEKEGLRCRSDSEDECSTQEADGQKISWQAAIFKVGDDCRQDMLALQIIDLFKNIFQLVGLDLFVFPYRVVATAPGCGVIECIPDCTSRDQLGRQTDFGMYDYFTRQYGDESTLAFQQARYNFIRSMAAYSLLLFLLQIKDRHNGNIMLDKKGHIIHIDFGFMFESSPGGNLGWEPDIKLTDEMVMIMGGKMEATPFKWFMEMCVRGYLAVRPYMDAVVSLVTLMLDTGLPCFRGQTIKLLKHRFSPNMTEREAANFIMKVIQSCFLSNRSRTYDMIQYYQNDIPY
UniProt Q9UBF8: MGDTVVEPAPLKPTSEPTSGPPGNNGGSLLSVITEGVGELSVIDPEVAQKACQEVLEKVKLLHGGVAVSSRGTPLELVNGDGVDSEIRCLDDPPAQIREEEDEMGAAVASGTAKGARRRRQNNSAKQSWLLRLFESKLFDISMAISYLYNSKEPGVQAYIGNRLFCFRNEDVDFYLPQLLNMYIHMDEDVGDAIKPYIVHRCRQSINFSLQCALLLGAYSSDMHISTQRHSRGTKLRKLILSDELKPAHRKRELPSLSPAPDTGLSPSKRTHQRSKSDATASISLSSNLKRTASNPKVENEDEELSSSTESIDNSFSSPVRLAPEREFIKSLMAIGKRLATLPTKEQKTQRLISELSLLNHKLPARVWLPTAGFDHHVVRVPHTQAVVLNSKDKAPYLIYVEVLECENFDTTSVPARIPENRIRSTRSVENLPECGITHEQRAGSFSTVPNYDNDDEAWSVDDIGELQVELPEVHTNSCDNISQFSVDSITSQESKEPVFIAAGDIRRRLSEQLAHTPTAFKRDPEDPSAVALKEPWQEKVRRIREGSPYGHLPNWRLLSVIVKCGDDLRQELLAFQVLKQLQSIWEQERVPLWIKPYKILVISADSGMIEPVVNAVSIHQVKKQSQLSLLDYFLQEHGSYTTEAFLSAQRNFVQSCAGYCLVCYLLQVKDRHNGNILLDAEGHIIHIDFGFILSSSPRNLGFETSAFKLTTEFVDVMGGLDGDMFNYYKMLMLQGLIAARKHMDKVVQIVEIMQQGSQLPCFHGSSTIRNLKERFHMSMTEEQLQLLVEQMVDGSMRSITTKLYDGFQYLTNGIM
UniProt Q13131: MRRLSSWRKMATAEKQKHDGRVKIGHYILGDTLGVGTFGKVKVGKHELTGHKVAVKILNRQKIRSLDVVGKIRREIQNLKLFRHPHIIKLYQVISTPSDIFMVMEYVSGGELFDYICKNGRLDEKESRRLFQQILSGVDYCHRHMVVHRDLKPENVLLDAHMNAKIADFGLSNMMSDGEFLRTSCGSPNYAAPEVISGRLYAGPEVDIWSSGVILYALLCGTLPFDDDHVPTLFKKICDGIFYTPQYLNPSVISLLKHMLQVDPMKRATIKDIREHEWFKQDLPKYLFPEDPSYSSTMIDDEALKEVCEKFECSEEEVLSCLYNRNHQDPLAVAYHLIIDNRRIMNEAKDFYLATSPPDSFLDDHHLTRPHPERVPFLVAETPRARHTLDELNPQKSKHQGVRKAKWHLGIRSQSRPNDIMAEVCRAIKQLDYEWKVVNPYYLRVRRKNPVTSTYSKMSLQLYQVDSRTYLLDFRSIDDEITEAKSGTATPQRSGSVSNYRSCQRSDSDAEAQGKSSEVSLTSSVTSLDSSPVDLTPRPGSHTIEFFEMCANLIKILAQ
UniProt Q05397, whole entry, looked up: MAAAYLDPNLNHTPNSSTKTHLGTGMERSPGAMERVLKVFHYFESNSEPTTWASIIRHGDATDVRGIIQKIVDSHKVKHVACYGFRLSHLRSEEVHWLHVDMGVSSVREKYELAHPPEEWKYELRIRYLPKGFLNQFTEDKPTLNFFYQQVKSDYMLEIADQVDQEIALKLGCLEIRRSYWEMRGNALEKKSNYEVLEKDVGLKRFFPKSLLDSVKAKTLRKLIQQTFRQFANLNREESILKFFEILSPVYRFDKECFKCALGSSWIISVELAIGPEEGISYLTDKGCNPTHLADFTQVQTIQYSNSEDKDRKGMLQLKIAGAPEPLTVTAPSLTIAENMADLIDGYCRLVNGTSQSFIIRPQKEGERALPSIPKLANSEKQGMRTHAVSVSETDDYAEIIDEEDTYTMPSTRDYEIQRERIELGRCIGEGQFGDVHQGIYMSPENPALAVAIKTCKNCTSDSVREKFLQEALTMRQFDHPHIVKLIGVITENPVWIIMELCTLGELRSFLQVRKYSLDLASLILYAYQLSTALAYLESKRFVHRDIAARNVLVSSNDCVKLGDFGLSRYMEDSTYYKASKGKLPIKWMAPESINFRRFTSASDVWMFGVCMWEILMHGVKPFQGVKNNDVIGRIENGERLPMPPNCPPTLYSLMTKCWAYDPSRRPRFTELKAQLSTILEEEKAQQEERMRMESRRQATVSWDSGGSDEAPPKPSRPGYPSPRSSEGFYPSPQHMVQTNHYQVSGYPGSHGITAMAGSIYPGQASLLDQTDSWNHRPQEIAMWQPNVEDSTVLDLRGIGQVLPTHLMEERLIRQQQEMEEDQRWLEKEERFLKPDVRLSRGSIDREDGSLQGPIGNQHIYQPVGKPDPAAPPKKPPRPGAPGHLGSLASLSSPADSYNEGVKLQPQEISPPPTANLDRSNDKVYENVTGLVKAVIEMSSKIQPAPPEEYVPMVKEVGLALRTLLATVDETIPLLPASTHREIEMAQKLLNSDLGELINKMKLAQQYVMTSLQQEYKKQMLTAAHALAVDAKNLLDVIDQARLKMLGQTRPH
UniProt Q14289, whole entry, looked up: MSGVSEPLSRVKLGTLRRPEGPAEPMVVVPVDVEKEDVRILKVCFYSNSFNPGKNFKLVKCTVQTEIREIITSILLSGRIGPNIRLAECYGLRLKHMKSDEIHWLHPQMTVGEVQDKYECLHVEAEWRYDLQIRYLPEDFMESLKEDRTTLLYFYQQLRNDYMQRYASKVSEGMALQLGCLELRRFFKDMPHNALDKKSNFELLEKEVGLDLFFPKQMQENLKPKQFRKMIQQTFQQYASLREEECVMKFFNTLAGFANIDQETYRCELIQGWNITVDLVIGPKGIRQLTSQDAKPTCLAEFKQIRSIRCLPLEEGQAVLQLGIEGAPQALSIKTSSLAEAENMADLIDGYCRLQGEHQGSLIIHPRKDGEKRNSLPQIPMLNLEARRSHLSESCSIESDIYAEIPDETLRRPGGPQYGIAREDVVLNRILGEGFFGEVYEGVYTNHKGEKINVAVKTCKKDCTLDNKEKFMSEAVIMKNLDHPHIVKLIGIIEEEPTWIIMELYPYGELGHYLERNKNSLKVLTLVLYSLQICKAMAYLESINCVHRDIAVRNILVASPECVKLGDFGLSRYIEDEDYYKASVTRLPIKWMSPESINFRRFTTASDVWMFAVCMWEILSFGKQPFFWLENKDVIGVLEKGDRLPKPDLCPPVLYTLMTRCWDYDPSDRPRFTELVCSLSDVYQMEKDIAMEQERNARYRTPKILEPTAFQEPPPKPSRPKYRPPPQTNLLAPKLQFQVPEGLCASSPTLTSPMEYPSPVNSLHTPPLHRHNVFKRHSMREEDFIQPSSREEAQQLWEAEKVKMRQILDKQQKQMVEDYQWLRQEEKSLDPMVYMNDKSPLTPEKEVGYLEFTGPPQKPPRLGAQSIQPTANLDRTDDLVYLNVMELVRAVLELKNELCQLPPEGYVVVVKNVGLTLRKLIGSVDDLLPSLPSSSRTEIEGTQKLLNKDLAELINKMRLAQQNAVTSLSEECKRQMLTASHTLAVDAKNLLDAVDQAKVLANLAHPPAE

What was measured:
Assay in all cases: kinase-Nluc reporter destabilization hit call (1 = scored as downregulated) (binary); higher = compound decreases kinase abundance
Settings in all cases: K562; 2-18 h
[1] = biological target: PDPK1 (UniProt O15530)
[2] = biological target: PIK4CA (UniProt P42356)
[3] = biological target: PIK4CB (UniProt Q9UBF8)
[4] = biological target: PLK1 (UniProt P53350)
[5] = biological target: PRKAA1 (UniProt Q13131)
[6] = biological target: PRKCA (UniProt P17252)
[7] = biological target: PTK2 (UniProt Q05397)
[8] = biological target: PTK2B (UniProt Q14289)
[9] = biological target: RAF1 (UniProt P04049)
[10] = biological target: RAF1_S257L (clone: RAF1_mut) (UniProt P04049)

Measured: kinase-Nluc reporter destabilization hit call

CS(=O)(=O)c1ccc([C@@H](CC2CCCC2)C(=O)Nc2nccs2)cc1 (10 µM)
inactive: [1] 0 | [2] 0 | [3] 0 | [4] 0 | [5] 0 | [6] 0 | [7] 0 | [8] 0 | [9] 0 | [10] 0

COc1cccc(-c2cc(=O)c3ccccc3o2)c1N (10 µM)
inactive: [1] 0 | [2] 0 | [3] 0 | [4] 0 | [5] 0 | [6] 0 | [7] 0 | [8] 0 | [9] 0 | [10] 0

COc1ccc2cc1Oc1ccc(cc1)C[C@H]1c3cc(c(OC)cc3CCN1C)Oc1c(O)c(OC)cc3c1[C@H](C2)N(C)CC3 [Fangchinoline] (2.5 µM)
inactive: [1] 0 | [2] 0 | [3] 0 | [4] 0 | [5] 0 | [6] 0 | [7] 0 | [8] 0 | [9] 0 | [10] 0

CC(C)(CCCCCC(O)CCCCCC(C)(C)C(=O)O)C(=O)O [Bempedoic acid] (10 µM)
inactive: [1] 0 | [2] 0 | [3] 0 | [4] 0 | [5] 0 | [6] 0 | [7] 0 | [8] 0 | [9] 0 | [10] 0

CN1C(=O)N[C@@H](Cc2c[nH]c3c(Cl)cccc23)C1=O [Necrostatin 2 (S enantiomer)] (10 µM)
inactive: [1] 0 | [2] 0 | [3] 0 | [4] 0 | [5] 0 | [6] 0 | [7] 0 | [8] 0 | [9] 0 | [10] 0

COC(=O)N1CCN(C2CCC(Nc3nc(Nc4cnn(C)c4)nc4ccc(CC#N)nc34)CC2)CC1 (stereo not drawn) (10 µM)
inactive: [1] 0 | [2] 0 | [3] 0 | [4] 0 | [5] 0 | [6] 0 | [7] 0 | [8] 0 | [9] 0 | [10] 0

CC(C)n1cnc2c(Nc3cccc(Cl)c3)nc(N[C@H]3CCCC[C@@H]3N)nc21 (2.5 µM)
inactive: [1] 0 | [2] 0 | [3] 0 | [4] 0 | [5] 0 | [6] 0 | [7] 0 | [8] 0 | [9] 0 | [10] 0

CN(C)c1ccc(/C=C2\C(=O)Nc3ccccc32)c2ccccc12 (10 µM)
inactive: [1] 0 | [2] 0 | [3] 0 | [4] 0 | [5] 0 | [6] 0 | [7] 0 | [8] 0 | [9] 0 | [10] 0

CC(=O)O/N=C1/C(c2c(O)[nH]c3cc(Br)ccc23)=Nc2ccccc21 [BIO-acetoxime] (10 µM)
inactive: [1] 0 | [2] 0 | [3] 0 | [4] 0 | [5] 0 | [6] 0 | [7] 0 | [8] 0 | [9] 0 | [10] 0

CC1(C)CN(C(=O)c2ccc(-c3cccc4nc(NC(=O)C5CC5)nn34)cc2)C1 [Solcitinib] (10 µM)
inactive: [1] 0 | [2] 0 | [3] 0 | [4] 0 | [5] 0 | [6] 0 | [7] 0 | [8] 0 | [9] 0 | [10] 0

NC(=O)c1c(NC(=O)C2CC2)sc2c1CCCC2 (10 µM)
inactive: [1] 0 | [2] 0 | [3] 0 | [4] 0 | [5] 0 | [6] 0 | [7] 0 | [8] 0 | [9] 0 | [10] 0

O=c1cc(N2CCOCC2)oc2c(-c3cccc4c3sc3ccccc34)cccc12 (10 µM)
inactive: [1] 0 | [2] 0 | [3] 0 | [4] 0 | [5] 0 | [6] 0 | [7] 0 | [8] 0 | [9] 0 | [10] 0

Cc1cnc(Cl)nc1-c1ccc(N(Cc2ccc(CNC(=O)C(F)F)cc2)C(=O)c2ccc(O)cc2O)cc1 (10 µM)
inactive: [1] 0 | [2] 0 | [3] 0 | [4] 0 | [5] 0 | [6] 0 | [7] 0 | [8] 0 | [9] 0 | [10] 0

CN1CCN(Cc2ccc(-c3cnc4[nH]cc(-c5ccc6[nH]ccc6c5)c4c3)cc2)CC1 (2.5 µM)
inactive: [1] 0 | [2] 0 | [3] 0 | [4] 0 | [5] 0 | [6] 0 | [7] 0 | [8] 0 | [9] 0 | [10] 0

O=C(Nc1ccc(F)cc1F)C(NC(=S)Nc1cc(C(F)(F)F)cc(C(F)(F)F)c1)c1ccccc1 (racemic) (2.5 µM)
inactive: [1] 0 | [2] 0 | [3] 0 | [4] 0 | [5] 0 | [6] 0 | [7] 0 | [8] 0 | [9] 0 | [10] 0

COc1cc2nnc(C(N)=O)c(Nc3ccc(C)cc3F)c2cc1N1CCN(CCO)CC1 (2.5 µM)
inactive: [1] 0 | [2] 0 | [3] 0 | [4] 0 | [5] 0 | [6] 0 | [7] 0 | [8] 0 | [9] 0 | [10] 0

C=CC(=O)Nc1cccc(Oc2nc(Nc3ccc(N4CCN(C)CC4)cc3OC)ncc2Cl)c1 (10 µM)
inactive: [1] 0 | [2] 0 | [3] 0 | [4] 0 | [5] 0 | [6] 0 | [7] 0 | [8] 0 | [9] 0 | [10] 0

Cc1nc(NC(=O)N2CCC[C@H]2C(N)=O)sc1-c1ccnc(C(C)(C)C(F)(F)F)c1 [Alpelisib] (2.5 µM)
inactive: [1] 0 | [2] 0 | [3] 0 | [4] 0 | [5] 0 | [6] 0 | [7] 0 | [8] 0 | [9] 0 | [10] 0

O=C(Nc1ccnc(NC(=O)C2CC2)c1)c1c(Cl)cccc1Cl (10 µM)
inactive: [1] 0 | [2] 0 | [3] 0 | [4] 0 | [5] 0 | [6] 0 | [7] 0 | [8] 0 | [9] 0 | [10] 0

Nc1nc(Nc2ccc3c(c2)CC[C@@H](N2CCCC2)CC3)nn1-c1cc2c(nn1)-c1ccccc1CCC2 [Bemcentinib] (2.5 µM)
inactive: [1] 0 | [2] 0 | [3] 0 | [4] 0 | [5] 0 | [6] 0 | [7] 0 | [8] 0 | [9] 0 | [10] 0

Oc1ccc(-c2cnc3ccc(NCc4ccco4)nn23)cc1 [IRAK inhibitor 2] (2.5 µM)
inactive: [1] 0 | [2] 0 | [3] 0 | [4] 0 | [5] 0 | [6] 0 | [7] 0 | [8] 0 | [9] 0 | [10] 0

CC(C1CC1)n1cnc2c(NCc3cccc(C(F)(F)F)c3)nc(NCCN(C)C)nc21 (stereo not drawn) (10 µM)
inactive: [1] 0 | [2] 0 | [3] 0 | [4] 0 | [5] 0 | [6] 0 | [7] 0 | [8] 0 | [9] 0 | [10] 0

CC(C)n1c(CO)nc2c(F)cc(-c3nc(Nc4ccc(CN5CCNCC5)cn4)ncc3F)cc21 (10 µM)
inactive: [1] 0 | [2] 0 | [3] 0 | [4] 0 | [5] 0 | [6] 0 | [7] 0 | [8] 0 | [9] 0 | [10] 0

C=CC(=O)Nc1cc(Nc2nccc(-c3cn(C)c4ccccc34)n2)c(OCC(F)(F)F)nc1N(C)CCNC [AST5902  (trimesylate)] (2.5 µM)
inactive: [1] 0 | [2] 0 | [3] 0 | [4] 0 | [5] 0 | [6] 0 | [7] 0 | [8] 0 | [9] 0 | [10] 0

CN1CCC(Nc2nc(Nc3ccc(Oc4ccccc4)cc3)c3c(=O)[nH]cc(Br)c3n2)CC1 (2.5 µM)
inactive: [1] 0 | [2] 0 | [3] 0 | [4] 0 | [5] 0 | [6] 0 | [7] 0 | [8] 0 | [9] 0 | [10] 0

N#Cc1cnc(Nc2cc(NC[C@H]3CNCCO3)c(C(F)(F)F)cn2)cn1 (10 µM)
inactive: [1] 0 | [2] 0 | [3] 0 | [4] 0 | [5] 0 | [6] 0 | [7] 0 | [8] 0 | [9] 0 | [10] 0

Cn1cc(C2=C(c3ccc(Cl)cc3Cl)C(=O)NC2=O)c2ccccc21 (10 µM)
inactive: [1] 0 | [2] 0 | [3] 0 | [4] 0 | [5] 0 | [6] 0 | [7] 0 | [8] 0 | [9] 0 | [10] 0

CN(C)CCn1cc2cc(NC(=O)c3cccc(C(F)(F)F)n3)c(C(C)(C)O)cc2n1 (10 µM)
inactive: [1] 0 | [2] 0 | [3] 0 | [4] 0 | [5] 0 | [6] 0 | [7] 0 | [8] 0 | [9] 0 | [10] 0

O=C(O)c1c[nH]c2cc(Cl)c(-c3ccc(C4(O)CCC4)cc3)cc12 (10 µM)
inactive: [1] 0 | [2] 0 | [3] 0 | [4] 0 | [6] 0 | [7] 0 | [8] 0 | [9] 0 | [10] 0

Retrieved one by one from the entries so far, two records:
O=C(O)c1c[nH]c2cc(Cl)c(-c3ccc(C4(O)CCC4)cc3)cc12 (10 µM)
inactive: [1] 0 | [2] 0 | [3] 0 | [4] 0 | [6] 0 | [7] 0 | [8] 0 | [9] 0 | [10] 0

Cn1cc(C2=C(c3ccc(Cl)cc3Cl)C(=O)NC2=O)c2ccccc21 (10 µM)
inactive: [1] 0 | [2] 0 | [3] 0 | [4] 0 | [5] 0 | [6] 0 | [7] 0 | [8] 0 | [9] 0 | [10] 0

(continued)

CC1=CC(=O)C(C(C)C)=C/C1=N/OC(=O)c1ccccc1C [Poloxin] (2.5 µM)
inactive: [1] 0 | [2] 0 | [3] 0 | [5] 0 | [6] 0 | [7] 0 | [8] 0 | [9] 0 | [10] 0
